Measured values taken from article PMC8436908.

Biological target: T1, prolactin receptor (PRLR) (mouse (endogenous in GT1-7)) (UniProt Q08501)
T1 sequence: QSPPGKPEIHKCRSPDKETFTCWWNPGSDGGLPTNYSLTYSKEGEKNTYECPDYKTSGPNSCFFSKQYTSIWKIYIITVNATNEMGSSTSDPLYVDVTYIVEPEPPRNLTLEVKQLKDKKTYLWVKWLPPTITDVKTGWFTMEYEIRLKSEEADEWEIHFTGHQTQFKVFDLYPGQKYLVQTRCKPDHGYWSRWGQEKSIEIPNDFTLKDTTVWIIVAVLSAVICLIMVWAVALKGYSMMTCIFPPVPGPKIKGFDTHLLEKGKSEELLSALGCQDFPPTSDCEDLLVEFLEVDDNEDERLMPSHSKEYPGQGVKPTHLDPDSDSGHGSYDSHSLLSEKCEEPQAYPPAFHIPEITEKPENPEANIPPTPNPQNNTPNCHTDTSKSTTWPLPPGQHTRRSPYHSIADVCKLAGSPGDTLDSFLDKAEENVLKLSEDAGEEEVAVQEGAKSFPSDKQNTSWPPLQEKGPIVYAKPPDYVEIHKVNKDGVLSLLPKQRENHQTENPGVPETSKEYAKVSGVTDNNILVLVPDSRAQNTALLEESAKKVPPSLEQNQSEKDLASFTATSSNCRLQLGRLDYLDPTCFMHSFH
Assay: co-IP; anti-PRLR antibody (IgG as control) added to RIPA lysate of GT1-7 cells at 4 C overnight, captured on protein A/G-agarose, western blot; cells treated for 72 h with blank CSF (Control), 200 ng/mL PRL (HPRL) or PRL + BSZY-D-containing CSF, with 10 uM MG132

β-Trcp (mouse (endogenous in GT1-7))
binding: binds

These are yes or no findings as the source states them, for the method shown. Binding seen in cells or lysates may run through a third protein. Binding calls can cover weak binding; strength is not graded here.
